The supplement of paper PMC10849652
This is one part of the list.

Chains of the proteins cited; added tags and fusions are not shown. Lines headed by an entry give the natural chain unless they say otherwise; changes in a name come on top.
UniProt Q9UBB5, whole entry, looked up: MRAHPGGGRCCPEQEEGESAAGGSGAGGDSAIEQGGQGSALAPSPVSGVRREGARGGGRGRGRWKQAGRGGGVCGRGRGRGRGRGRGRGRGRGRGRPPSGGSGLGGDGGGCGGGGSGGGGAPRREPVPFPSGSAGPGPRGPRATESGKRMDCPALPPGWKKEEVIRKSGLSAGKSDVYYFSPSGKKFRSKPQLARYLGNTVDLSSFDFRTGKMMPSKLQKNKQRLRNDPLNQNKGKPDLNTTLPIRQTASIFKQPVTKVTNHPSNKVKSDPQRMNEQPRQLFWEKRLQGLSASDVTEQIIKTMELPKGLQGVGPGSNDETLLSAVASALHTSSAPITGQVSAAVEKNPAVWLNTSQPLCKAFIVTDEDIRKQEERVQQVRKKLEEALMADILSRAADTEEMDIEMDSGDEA
UniProt O95402: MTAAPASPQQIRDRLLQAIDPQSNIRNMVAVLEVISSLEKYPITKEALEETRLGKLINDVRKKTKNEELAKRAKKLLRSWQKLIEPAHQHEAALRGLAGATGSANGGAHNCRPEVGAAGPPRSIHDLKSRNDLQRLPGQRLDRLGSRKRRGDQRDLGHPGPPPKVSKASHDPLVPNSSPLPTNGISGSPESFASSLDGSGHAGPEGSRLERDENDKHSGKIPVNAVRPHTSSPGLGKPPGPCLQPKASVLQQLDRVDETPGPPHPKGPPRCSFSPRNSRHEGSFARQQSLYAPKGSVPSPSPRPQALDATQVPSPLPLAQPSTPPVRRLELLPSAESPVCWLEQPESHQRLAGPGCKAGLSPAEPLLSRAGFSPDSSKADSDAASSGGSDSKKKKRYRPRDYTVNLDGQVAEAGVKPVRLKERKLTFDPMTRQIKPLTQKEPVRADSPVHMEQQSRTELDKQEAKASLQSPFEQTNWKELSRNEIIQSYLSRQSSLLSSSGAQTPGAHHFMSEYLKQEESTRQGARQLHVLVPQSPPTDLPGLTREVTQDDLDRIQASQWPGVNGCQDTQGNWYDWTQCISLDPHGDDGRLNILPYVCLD
UniProt P21741: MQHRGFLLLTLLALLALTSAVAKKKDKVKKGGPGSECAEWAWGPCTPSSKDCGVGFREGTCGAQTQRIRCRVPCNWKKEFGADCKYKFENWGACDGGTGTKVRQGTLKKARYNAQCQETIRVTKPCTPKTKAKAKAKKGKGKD
UniProt P55082: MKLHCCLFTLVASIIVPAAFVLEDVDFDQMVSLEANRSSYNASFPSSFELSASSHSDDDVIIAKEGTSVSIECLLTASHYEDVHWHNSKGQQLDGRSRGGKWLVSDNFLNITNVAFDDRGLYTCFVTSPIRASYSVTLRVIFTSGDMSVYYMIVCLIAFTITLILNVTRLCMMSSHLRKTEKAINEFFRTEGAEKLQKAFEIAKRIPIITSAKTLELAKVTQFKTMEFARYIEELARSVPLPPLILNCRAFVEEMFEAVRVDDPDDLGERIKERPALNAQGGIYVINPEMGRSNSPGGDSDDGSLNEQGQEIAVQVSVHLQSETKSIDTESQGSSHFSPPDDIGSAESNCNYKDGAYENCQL
UniProt Q9NWA0: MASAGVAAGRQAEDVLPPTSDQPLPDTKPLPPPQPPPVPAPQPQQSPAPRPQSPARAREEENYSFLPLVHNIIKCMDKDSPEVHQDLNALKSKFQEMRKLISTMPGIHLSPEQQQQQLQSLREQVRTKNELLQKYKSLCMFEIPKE
UniProt Q86YT6, whole entry, looked up: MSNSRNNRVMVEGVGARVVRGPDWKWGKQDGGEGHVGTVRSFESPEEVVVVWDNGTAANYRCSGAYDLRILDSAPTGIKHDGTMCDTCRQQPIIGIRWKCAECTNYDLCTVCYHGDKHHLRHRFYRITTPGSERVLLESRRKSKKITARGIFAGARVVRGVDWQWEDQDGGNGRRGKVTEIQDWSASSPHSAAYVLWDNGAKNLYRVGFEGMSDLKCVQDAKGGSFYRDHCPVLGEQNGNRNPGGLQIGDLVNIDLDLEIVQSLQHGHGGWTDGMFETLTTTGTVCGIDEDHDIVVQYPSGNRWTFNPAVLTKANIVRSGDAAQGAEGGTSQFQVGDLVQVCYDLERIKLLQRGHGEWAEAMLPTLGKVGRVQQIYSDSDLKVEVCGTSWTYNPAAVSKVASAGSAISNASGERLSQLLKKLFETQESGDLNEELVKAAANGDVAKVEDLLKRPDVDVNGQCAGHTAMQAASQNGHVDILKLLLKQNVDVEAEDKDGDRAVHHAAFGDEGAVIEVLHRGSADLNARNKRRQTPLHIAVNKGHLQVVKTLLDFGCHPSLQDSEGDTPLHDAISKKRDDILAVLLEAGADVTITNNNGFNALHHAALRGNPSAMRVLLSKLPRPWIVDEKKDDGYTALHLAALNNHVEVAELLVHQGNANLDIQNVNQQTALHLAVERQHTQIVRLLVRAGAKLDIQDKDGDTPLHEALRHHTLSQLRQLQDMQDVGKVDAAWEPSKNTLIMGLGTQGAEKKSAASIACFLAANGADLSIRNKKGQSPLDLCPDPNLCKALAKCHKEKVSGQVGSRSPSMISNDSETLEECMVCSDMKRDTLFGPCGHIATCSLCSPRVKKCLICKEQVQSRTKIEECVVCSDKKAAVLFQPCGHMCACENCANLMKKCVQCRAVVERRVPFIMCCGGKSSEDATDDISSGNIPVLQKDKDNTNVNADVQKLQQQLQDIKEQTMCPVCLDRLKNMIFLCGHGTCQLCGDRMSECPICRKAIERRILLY
MCTS2P, A0A3B3IRV3, UniProt A0A3B3IRV3, whole entry, looked up: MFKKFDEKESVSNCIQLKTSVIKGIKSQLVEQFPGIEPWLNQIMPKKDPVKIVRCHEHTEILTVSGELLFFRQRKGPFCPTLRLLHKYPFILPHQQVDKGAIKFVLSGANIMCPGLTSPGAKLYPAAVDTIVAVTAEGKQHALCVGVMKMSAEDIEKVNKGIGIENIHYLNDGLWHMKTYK
UniProt O43462: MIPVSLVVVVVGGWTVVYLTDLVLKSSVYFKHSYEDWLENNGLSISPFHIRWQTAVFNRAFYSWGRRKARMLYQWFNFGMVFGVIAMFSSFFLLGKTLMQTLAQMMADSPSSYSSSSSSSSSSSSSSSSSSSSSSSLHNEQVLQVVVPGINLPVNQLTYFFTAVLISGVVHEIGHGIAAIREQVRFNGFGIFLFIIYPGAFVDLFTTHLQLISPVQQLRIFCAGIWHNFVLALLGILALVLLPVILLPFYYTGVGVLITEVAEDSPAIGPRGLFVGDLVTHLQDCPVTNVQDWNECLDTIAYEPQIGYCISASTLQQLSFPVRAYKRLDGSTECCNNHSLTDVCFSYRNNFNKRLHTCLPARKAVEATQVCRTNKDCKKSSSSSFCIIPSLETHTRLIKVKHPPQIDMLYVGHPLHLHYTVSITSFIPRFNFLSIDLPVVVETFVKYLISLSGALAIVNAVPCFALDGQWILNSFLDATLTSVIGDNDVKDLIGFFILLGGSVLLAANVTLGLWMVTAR
UniProt Q9Y4C4: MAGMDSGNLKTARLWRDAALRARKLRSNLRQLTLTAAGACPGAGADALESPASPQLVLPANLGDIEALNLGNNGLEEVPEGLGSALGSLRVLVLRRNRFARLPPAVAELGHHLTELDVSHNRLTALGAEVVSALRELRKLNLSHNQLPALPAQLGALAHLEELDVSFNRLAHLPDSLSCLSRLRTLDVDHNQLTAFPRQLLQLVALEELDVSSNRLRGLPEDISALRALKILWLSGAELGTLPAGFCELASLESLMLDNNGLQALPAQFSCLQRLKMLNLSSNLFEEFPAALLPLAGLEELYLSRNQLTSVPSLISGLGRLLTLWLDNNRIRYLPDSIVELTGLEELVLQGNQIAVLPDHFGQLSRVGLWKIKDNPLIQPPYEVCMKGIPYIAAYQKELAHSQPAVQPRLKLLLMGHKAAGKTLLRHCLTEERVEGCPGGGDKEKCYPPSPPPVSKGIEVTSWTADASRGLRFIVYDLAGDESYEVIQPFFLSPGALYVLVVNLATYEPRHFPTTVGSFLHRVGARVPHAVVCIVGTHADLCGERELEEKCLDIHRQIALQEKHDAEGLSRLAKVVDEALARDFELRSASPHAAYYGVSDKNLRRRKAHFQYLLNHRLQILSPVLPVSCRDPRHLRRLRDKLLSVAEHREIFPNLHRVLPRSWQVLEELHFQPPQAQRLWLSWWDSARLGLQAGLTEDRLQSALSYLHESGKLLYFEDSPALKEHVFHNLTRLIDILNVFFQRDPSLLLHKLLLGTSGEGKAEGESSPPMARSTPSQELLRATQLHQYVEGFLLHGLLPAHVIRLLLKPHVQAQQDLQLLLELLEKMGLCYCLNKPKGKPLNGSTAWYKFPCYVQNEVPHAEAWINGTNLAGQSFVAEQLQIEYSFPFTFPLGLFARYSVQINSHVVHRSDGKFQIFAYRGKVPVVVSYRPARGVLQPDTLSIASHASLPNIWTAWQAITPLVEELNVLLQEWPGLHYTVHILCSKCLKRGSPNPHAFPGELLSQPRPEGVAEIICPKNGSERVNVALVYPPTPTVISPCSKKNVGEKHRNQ
UniProt Q9NR56: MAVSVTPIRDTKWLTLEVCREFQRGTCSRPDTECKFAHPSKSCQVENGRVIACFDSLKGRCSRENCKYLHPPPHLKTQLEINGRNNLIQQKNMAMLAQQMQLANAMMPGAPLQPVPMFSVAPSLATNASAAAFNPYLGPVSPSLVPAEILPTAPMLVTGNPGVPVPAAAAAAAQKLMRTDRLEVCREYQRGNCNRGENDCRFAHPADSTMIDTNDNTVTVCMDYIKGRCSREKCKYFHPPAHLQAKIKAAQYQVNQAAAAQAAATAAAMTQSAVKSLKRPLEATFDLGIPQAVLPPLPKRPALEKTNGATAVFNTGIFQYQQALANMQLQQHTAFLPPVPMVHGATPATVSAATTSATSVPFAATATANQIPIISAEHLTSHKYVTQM
UniProt Q5VZF2: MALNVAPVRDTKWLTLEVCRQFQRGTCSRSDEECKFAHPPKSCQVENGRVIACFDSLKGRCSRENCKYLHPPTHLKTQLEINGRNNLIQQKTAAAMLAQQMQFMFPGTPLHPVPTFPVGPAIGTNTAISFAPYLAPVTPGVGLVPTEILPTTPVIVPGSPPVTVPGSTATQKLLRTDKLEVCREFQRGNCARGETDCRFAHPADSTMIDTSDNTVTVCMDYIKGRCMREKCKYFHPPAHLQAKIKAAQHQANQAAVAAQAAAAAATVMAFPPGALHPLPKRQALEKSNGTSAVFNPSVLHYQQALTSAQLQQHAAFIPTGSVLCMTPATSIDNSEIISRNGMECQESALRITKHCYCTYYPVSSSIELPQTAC
UniProt Q02078: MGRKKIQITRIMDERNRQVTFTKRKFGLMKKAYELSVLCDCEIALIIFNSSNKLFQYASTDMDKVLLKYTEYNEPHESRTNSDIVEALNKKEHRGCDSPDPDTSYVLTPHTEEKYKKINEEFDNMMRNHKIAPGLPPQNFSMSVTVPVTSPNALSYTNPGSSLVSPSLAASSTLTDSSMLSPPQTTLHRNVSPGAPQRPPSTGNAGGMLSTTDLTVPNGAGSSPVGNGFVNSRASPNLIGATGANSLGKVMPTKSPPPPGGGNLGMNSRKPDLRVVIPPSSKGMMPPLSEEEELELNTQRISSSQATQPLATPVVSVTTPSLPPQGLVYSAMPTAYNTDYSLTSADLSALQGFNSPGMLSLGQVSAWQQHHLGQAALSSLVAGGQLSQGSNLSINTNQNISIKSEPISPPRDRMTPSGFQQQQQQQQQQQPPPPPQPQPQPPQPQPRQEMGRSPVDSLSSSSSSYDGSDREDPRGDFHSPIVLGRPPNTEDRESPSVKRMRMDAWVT
UniProt Q6ZN04: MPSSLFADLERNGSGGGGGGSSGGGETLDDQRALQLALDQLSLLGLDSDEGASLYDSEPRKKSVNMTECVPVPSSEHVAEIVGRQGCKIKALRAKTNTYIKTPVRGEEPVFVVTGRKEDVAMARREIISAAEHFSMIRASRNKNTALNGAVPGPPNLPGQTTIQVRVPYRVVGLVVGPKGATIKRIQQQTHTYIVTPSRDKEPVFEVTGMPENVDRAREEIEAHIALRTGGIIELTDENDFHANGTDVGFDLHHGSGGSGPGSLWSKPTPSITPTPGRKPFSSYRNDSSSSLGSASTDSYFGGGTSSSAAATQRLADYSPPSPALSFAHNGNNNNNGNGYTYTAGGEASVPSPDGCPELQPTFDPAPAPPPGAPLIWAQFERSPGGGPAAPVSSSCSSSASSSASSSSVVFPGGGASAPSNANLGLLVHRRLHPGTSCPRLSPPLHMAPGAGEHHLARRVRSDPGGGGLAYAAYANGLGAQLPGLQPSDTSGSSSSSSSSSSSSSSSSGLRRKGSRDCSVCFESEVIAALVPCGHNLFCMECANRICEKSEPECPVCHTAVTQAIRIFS
UniProt Q9P086: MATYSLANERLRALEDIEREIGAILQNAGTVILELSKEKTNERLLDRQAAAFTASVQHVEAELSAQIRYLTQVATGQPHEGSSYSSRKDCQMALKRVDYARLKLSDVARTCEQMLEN
UniProt Q9NX70: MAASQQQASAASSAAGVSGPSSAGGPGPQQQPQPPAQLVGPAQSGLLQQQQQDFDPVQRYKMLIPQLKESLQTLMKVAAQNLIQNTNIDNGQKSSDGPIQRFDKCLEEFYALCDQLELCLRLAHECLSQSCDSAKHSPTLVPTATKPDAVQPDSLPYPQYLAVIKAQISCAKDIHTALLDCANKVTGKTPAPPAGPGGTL

Legend:
Experiment in all cases: log2 fold change, soluble protein after heating vs DMSO (PISA); higher = thermal stabilisation; K562 cells, 10 uM, 30 min; active = over 0.2 and 3.5 SD of the protein, either way, in both replicates (recomputed)
volasertib = compound: CC[C@@H]1C(=O)N(C)c2cnc(Nc3ccc(C(=O)N[C@H]4CC[C@H](N5CCN(CC6CC6)CC5)CC4)cc3OC)nc2N1C(C)C [volasertib]
Summary of the method: (§1)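 K562 cells (2×10^6 cells/mL) were treated with 10 μM compound for 30 min, and aliquots were heated for 3 min over 48°C-58°C. Pooled aliquots were extracted in PBS with 0.5% NP-40 at 4°C, and the supernatant after 21,000xg for 90 min was measured by TMTpro 16plex LC-MS/MS with channel sums equalised. Reported thermal stability, relative to control samples and from duplicates, is a log2 fold change.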

[1] = compound: CC[C@H](C)N1C=C(C2=C(C=C(C=C21)C3=CN=C(C=C3)N4CCNCC4)C(=O)NCC5=C(C=C(NC5=O)C)C)C
Summary of the method: as §1

epoxomicin = compound: CC[C@H](C)[C@@H](C(=O)N[C@@H]([C@@H](C)O)C(=O)N[C@@H](CC(C)C)C(=O)[C@]1(CO1)C)NC(=O)[C@H]([C@@H](C)CC)N(C)C(=O)C [epoxomicin]
Summary of the method: as §1

[2] = compound: CCn1c(C(=O)N(C2CC2)C2CC2)cc2c3c(ncn3C)c(Nc3cc(C)n(C)n3)nc21
Summary of the method: as §1

[3] = compound: CCn1cc(-c2ccnc3[nH]c(-c4cccc(CN(C)C)c4)cc23)c(-c2ccc(NC(=O)N(C)C)cc2)n1
Summary of the method: as §1

[4] = compound: CN(C)CC(=O)Nc1ccc2[nH]c(=O)c3ccccc3c2c1
Summary of the method: as §1

rosiglitazone = compound: CN(CCOC1=CC=C(C=C1)C[C@H]2C(=O)NC(=O)S2)C3=CC=CC=N3 (racemic) [rosiglitazone]
Summary of the method: as §1

[5] = compound: CN1C2=C(C3=C1C(=O)N(N=C3)CC4=CC(=CC=C4)N)SC(=C2)S(=O)C
Summary of the method: as §1

[6] = compound: CN1CCC(CNc2ccc3ncc(-c4cccc(OC(F)(F)F)c4)n3n2)CC1
Summary of the method: as §1

[7] = compound: CC[C@@H]1C(=O)N(C)c2cnc(Nc3ccc(C(=O)NC4CCN(C)CC4)cc3OC)nc2N1C1CCCC1
Summary of the method: as §1

Measured: log2 fold change

MBD2 (UniProt Q9UBB5)
inactive: volasertib -0.109 | [1] 0.019 | epoxomicin -0.155 | [2] -0.081 | [3] -0.126 | [4] -0.022 | rosiglitazone 0.022 | [5] 0.058 | [6] -0.083

MED26 (UniProt O95402)
inactive: volasertib 0.041 | [3] 0.188 | [4] -0.073 | [5] 0.108 | [6] 0.115

MASP1 isoform 2 (UniProt P48740)
inactive: [3] -0.067 | [6] 0.32

MDK (UniProt P21741)
inactive: volasertib 0.362 | [1] -0.189 | [2] 0.02 | [3] -0.068 | rosiglitazone -0.045 | [5] 0.13 | [6] 0.162

MFAP3 (UniProt P55082)
inactive: epoxomicin -0.054 | [4] -0.118 | [5] -0.008

MED9 (UniProt Q9NWA0)
inactive: [7] 0.088 | [1] -0.112 | [3] -0.127 | [5] -0.069 | [6] 0.144

METTL6 (UniProt Q8TCB7)
inactive: volasertib 0.022 | epoxomicin -0.17 | [2] -0.067 | [3] -0.043 | rosiglitazone 0.004 | [5] 0.046 | [6] -0.186

Taken from the entries so far (3 entries):
MFAP3 (UniProt P55082)
inactive: epoxomicin -0.054 | [4] -0.118 | [5] -0.008

MED9 (UniProt Q9NWA0)
inactive: [7] 0.088 | [1] -0.112 | [3] -0.127 | [5] -0.069 | [6] 0.144

METTL6 (UniProt Q8TCB7)
inactive: volasertib 0.022 | epoxomicin -0.17 | [2] -0.067 | [3] -0.043 | rosiglitazone 0.004 | [5] 0.046 | [6] -0.186

More results:

MIB1 (UniProt Q86YT6)
inactive: [7] -0.04 | epoxomicin 0.069 | [2] -0.076 | [3] 0.133 | [4] -0.059 | rosiglitazone 0 | [6] -0.258

MEIS2 (UniProt O14770)
inactive: volasertib -0.291 | [2] -0.097 | [3] -0.082 | rosiglitazone 0.14 | [5] 0.051 | [6] -0.279

MFSD12 isoform 3 (UniProt Q6NUT3)
inactive: [7] -0.005 | [3] -0.006 | [5] 0.075 | [6] -0.305

METTL9 (UniProt Q9H1A3)
inactive: volasertib -0.021 | [2] 0.003 | [3] 0.02 | [4] 0.314 | rosiglitazone -0.001 | [5] 0.173 | [6] -0.114

MFSD9 (UniProt Q8NBP5)
inactive: volasertib 0.046 | [1] -0.019 | [2] 0.17 | [5] 0.02

MCTS2P, A0A3B3IRV3
inactive: [1] 0.008

MEGF9 (UniProt Q9H1U4)
inactive: [2] 0.051 | [3] 0.116 | rosiglitazone -0.296 | [6] 0.047

MBTPS2 (UniProt O43462)
inactive: volasertib 0 | [1] 0.023 | epoxomicin 0.003 | [2] 0.05 | [3] -0.177 | [4] 0.064 | [5] -0.04 | [6] -0.035

MAU2 (UniProt Q9Y6X3)
inactive: volasertib -0.05 | [2] -0.033 | [3] 0.014 | [4] -0.015 | [6] -0.058

MGRN1 isoform 2 (UniProt O60291)
inactive: volasertib -0.115 | [3] -0.072 | [6] -0.07

MFHAS1 (UniProt Q9Y4C4)
inactive: [3] -0.213 | [4] -0.117 | rosiglitazone -0.207 | [5] 0.174 | [6] 0.029

MBNL1 isoform 5 (UniProt Q9NR56)
inactive: [7] -0.063 | [1] -0.069 | epoxomicin 0.125 | rosiglitazone -0.111

MBNL2 (UniProt Q5VZF2)
inactive: volasertib -0.083 | [2] 0.061 | [3] 0.018 | [6] -0.074

MBIP (UniProt Q9NS73)
inactive: volasertib -0.166 | [2] -0.142 | [4] -0.053 | rosiglitazone -0.161

MEF2A isoform 2 (UniProt Q02078)
inactive: volasertib 0 | [1] 0.103 | [3] 0.26 | [4] -0.101 | [6] 0.098

METTL25 (UniProt Q8N6Q8)
inactive: volasertib -0.018 | [1] -0.081 | epoxomicin -0.063 | [2] -0.171 | [3] 0.066 | [4] -0.046 | rosiglitazone 0.112 | [5] 0.062 | [6] -0.106

MED7 (UniProt O43513)
inactive: volasertib 0.139 | [1] -0.287 | epoxomicin 0.127 | [4] 0.021 | [5] -0.172

MATK isoform 2 (UniProt P42679)
inactive: [1] -0.047 | [4] 0.169 | [5] -0.205

MASTL (UniProt Q96GX5)
inactive: [7] -0.02 | [1] 0.045 | epoxomicin 0.113 | [4] -0.143 | [5] 0.081

MED31 (UniProt Q9Y3C7)
inactive: [7] 0.203 | [1] -0.027 | [4] -0.151

MEF2C isoform 2 (UniProt Q06413)
inactive: [7] -0.222 | epoxomicin -0.014

MED27 (UniProt Q6P2C8)
inactive: [1] -0.044 | epoxomicin -0.008 | [2] 0.028 | [3] 0.077 | rosiglitazone 0.024 | [5] 0.086 | [6] 0.319

MEX3B (UniProt Q6ZN04)
inactive: volasertib -0.22 | [1] 0.209 | [2] 0.162 | rosiglitazone -0.121

METTL15 (UniProt A6NJ78)
inactive: epoxomicin 0.518 | rosiglitazone 0.048 | [5] 0.1

METTL7B (UniProt Q6UX53)
inactive: epoxomicin 0.034 | [2] -0.126 | [3] 0.106 | [6] 0.011

MED11 (UniProt Q9P086)
inactive: [2] 0.017

MED29 (UniProt Q9NX70)
inactive: volasertib -0.115 | [1] 0.055 | [5] -0.056

MEGF10 (UniProt Q96KG7)
inactive: volasertib -0.192
